# PubChem BioAssay AID651768 (National Center for Advancing Translational Sciences (NCATS), 2012)
# Amino acid sequences for entries named in this document (tags omitted).
# UniProt Q14191, whole entry, looked up: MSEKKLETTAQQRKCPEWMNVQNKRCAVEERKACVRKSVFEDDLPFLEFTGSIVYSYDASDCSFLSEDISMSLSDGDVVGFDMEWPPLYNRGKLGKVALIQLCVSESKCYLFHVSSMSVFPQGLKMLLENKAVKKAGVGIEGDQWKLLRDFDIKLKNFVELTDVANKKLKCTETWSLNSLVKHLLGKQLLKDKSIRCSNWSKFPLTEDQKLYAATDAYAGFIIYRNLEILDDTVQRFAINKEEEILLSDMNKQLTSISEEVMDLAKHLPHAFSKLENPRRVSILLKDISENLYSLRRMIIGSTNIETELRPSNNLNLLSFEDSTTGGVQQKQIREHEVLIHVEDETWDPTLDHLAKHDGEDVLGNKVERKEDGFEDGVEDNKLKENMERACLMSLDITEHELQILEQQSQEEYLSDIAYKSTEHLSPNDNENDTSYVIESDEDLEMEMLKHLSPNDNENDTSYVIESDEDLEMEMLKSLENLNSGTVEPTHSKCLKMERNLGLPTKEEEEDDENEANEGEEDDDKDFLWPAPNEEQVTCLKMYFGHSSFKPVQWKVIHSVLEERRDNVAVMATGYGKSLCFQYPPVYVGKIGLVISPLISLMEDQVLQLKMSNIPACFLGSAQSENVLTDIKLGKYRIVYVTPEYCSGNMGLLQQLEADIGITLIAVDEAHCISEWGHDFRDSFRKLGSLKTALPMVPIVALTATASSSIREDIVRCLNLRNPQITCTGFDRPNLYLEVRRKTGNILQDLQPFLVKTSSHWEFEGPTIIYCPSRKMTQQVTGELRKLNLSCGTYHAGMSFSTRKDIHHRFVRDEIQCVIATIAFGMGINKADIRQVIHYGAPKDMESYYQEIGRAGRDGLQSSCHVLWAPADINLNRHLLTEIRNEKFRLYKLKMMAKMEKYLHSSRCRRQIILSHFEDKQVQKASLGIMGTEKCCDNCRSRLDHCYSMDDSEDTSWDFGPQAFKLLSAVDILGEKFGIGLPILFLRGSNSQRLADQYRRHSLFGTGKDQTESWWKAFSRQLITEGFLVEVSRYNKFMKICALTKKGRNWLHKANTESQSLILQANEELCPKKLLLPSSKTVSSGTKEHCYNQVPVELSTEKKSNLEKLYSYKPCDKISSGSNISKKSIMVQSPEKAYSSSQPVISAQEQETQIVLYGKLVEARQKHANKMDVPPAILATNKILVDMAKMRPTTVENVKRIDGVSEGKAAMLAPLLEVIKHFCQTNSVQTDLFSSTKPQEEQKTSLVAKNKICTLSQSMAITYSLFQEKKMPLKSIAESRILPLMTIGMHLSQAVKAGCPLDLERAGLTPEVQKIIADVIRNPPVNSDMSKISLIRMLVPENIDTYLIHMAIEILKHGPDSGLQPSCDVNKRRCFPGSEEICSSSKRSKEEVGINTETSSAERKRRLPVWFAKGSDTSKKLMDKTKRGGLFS
# Hit rate of the full screen: of about 360,000 compounds, about 1,700 (0.47%) were called active. Inconclusive results, whose numbers are uncertain, are shown with a selection of clear calls. Calls come from the whole dose curve; as a rule, active = well fitted inhibition curve with a large enough effect; inconclusive = small, poorly fitted or top-dose-only effect; inactive = no such curve, though single readings can be large or run the other way. Where the call is inconclusive, the potency comes from a doubtful curve fit.
# Target: Bifunctional 3'-5' exonuclease/ATP-dependent helicase WRN (Homo sapiens) (UniProt Q14191)
# Assay: qHTS for Inhibitors of WRN Helicase; note: nearly all actives have a fitted effect of over 55% in size
# Conditions: WRN helicase unwinding, fluorescent forked duplex, kinetic; activity change, negative = inhibition: at 114 µM (top of the series) unless noted
# How it was run: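 Primary qHTS, 1536-well format. 20 nM WRN + compound, 15 min RT; start with 100 nM forked fluorophore/quencher duplex, 2 mM ATP (final); kinetic read ex 525/em 598 nm.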
# % is set by controls: 0 for no effect and ±100 for the full control effect; potency is the fitted concentration of half-maximal effect.
SMILES,"activity change, negative = inhibition",Potency
CN(C)CCC1(C2=CCCC2)CC/C(=C/c2ccc(Cl)cc2)C1=O (centres undefined),inactive: -1.54%,–
O=C(Nc1nc(-c2ccccn2)cs1)c1cc2ccccc2o1,inactive: 14.5%,–
CCS(=O)(=O)c1ccc2oc(Nc3ccc(C(C)C)cc3)nc2c1,–,"inconclusive: 25.1 µM [inhibitor, single point]"
CNC(=O)c1c(NC(=O)C2=COCCO2)sc2c1CCC(C)C2 (centres undefined),–,"inconclusive: 79.4 µM [inhibitor, single point]"
O=C(/C=C/c1ccncc1)c1ccc(NC(=O)c2ccccc2F)cc1,–,"inconclusive: 14.1 µM [inhibitor, full curve, poor fit]"
Cc1nc2ccccc2cc1C(=O)N/N=C/c1ccccc1[N+](=O)[O-],inactive: -3.08%,–
COCc1[nH]c(=S)c(C#N)cc1C(=O)OC,–,"inconclusive: 50.1 µM [inhibitor, partial curve]"
COc1cc(/C=N/Nc2nc3ccccc3s2)cc([N+](=O)[O-])c1O,–,"inconclusive: 39.8 µM [inhibitor, partial curve]"
O=C(Nc1ccc(S(=O)(=O)Nc2nccs2)cc1)c1ccc(=O)[nH]c1,–,"inconclusive: 39.8 µM [inhibitor, single point]"
COc1cc(/C=C/C(=O)Nc2ccc(OC)c(S(=O)(=O)N3CCOCC3)c2)ccc1OC(F)F,–,"inconclusive: 14.1 µM [inhibitor, single point]"
CCc1nnc(NC(=O)CC(=O)Nc2ccccc2C(=O)O)s1,inactive: -11.5%,–
COc1ccc(OC)c(/C=C2\S/C(=N/NC(=O)c3ccc4ccccc4c3)NC2=O)c1,–,"inconclusive: 39.8 µM [inhibitor, partial curve]"
Nc1ccc(OCCCc2c(N)nc(N)nc2N)cc1,inactive: 0.615%,–
O=c1/c(=C/c2ccco2)sc2nc(-c3ccccc3Br)nn12,–,"inconclusive: 50.1 µM [inhibitor, partial curve]"
CCc1ccc(-c2nc(SCC(=O)c3c(N)n(C)c(=O)n(C)c3=O)n[nH]2)cc1,–,"inconclusive: 35.5 µM [inhibitor, partial curve]"
O=C(NCCc1ccccc1)c1ccc(=O)oc1,inactive: 14.8%,–
CCOC(=O)C1Nc2ccc(C(=O)O)cc2C2C=CCC12 (centres undefined),–,active: 28.2 µM
COc1ccccc1/C=C1/SC(=O)N(CCC(=O)Nc2ccc(S(=O)(=O)Nc3nccs3)cc2)C1=O,–,"inconclusive: 50.1 µM [inhibitor, partial curve]"
O=C(CCl)Nc1cccc(Oc2ccccc2)c1,–,"inconclusive: 79.4 µM [inhibitor, partial curve]"
COCCn1c(SCC(=O)N2CCOCC2)nc2c(c1=O)SCC2,–,"inconclusive: 39.8 µM [inhibitor, single point]"
Cc1cc(-c2csc(N)n2)c(C)n1C,–,"inconclusive: 31.6 µM [inhibitor, single point]"
CCc1n[nH]c(=S)n1/N=C/c1ccccn1,–,"inconclusive: 8.91 µM [inhibitor, full curve, poor fit]"
Cc1nnc(SC(C)C(=O)Nc2sc3c(c2C#N)CCCC3)[nH]c1=O (centres undefined),–,"inconclusive: 11.2 µM [inhibitor, partial curve]"

# Full records from above.
# COc1ccc(OC)c(/C=C2\S/C(=N/NC(=O)c3ccc4ccccc4c3)NC2=O)c1 in the list: Potency: inconclusive: 39.8 µM [inhibitor, partial curve]
# O=c1/c(=C/c2ccco2)sc2nc(-c3ccccc3Br)nn12 in the list: Potency: inconclusive: 50.1 µM [inhibitor, partial curve]
# O=C(CCl)Nc1cccc(Oc2ccccc2)c1 in the list: Potency: inconclusive: 79.4 µM [inhibitor, partial curve]

# Going on with the list.

SMILES,"activity change, negative = inhibition",Potency
Clc1ccc2[nH]c3c(NCCCN4CCOCC4)ncnc3c2c1,–,"inconclusive: 12.6 µM [inhibitor, single point]"
Cc1nc2ccc(-c3nc4ccc(N)cc4[nH]3)cc2[nH]1,–,"inconclusive: 35.5 µM [inhibitor, partial curve]"
COc1ccc2nc(-n3c(O)c(C4=c5ccccc5=NC4=O)[nH]c3=S)sc2c1,–,active: 25.1 µM
COc1cc(N=Nc2cccc(S(N)(=O)=O)c2)c2ccccc2c1N,–,"inconclusive: 28.2 µM [inhibitor, partial curve]"
Nc1ccc(-c2nc3cc(N)ccc3n2CCO)cc1,inactive: 1.36%,–
CC(C)C[C@@H](CN)NC(=O)c1nc[nH]c1C(=O)N[C@@H](CC(=O)O)C(=O)CNC[C@H](C)NC(=O)c1nc[nH]c1C(=O)N[C@@H](CC(=O)O)C(=O)O,inactive: -4.93%,–
CCCCn1c(NS(=O)(=O)c2ccccc2)c(S(=O)(=O)c2ccc(C)cc2)c2nc3ccccc3nc21,–,"inconclusive: 17.8 µM [inhibitor, single point]"
O=C(CSc1ncnc2sc3c(c12)CCC3)Nc1ccccc1C(=O)O,–,"inconclusive: 89.1 µM [inhibitor, single point]"
CSCCC(NC(=O)c1ccccc1)C(=O)NCCc1ccc2c(c1)OCCO2 (centres undefined),–,"inconclusive: 39.8 µM [inhibitor, full curve, poor fit]"
O=C(CSc1cn[nH]n1)Nc1cccc(C(=O)O)c1,–,"inconclusive: 44.7 µM [inhibitor, partial curve]"
COc1ccc(N2C(=O)C(CC(=O)Nc3ccccc3)N(Cc3ccc(OC)c(OC)c3)C2=O)cc1 (centres undefined),–,"inconclusive: 39.8 µM [inhibitor, single point]"
ONC(=Nc1ccc(Cl)cc1)c1ccc(Cl)cc1,inactive: -2.1%,–
Cn1c(CNC(=O)c2ccc3c(c2)OCO3)nnc1SCC(=O)Nc1ccc(F)cc1F,inactive: 0.668% [at 57.1 µM],–
CC(/C=N/NC(=O)CSc1nc2ccccc2n1C)=C\c1ccco1,inactive: -35.2%,–
Cc1cc2ccccc2n1CCNC(=O)Cc1cccc2ccccc12,–,"inconclusive: 100 µM [inhibitor, single point]"
CCOC1=C/C(=C/c2c(N)n3nc(-c4ccccc4)sc3nc2=O)C=CC1=O,–,"inconclusive: 50.1 µM [inhibitor, partial curve]"
CC(=O)Nc1ccc(S(=O)(=O)N(C)c2ccc(OCCOc3cccc(C)c3)cc2)cc1,–,"inconclusive: 39.8 µM [inhibitor, full curve, poor fit]"
O=C(O)COc1ccccc1/C=N/NC(=O)CSc1nc2ccccc2c(=O)n1-c1ccccc1,–,"inconclusive: 79.4 µM [inhibitor, single point]"
CCCn1c(O)c(CN2CCCC(C)C2)c(C)c(C#N)c1=O (centres undefined),–,"inconclusive: 6.31 µM [inhibitor, full curve, poor fit]"
O=[N+]([O-])c1ccc(N/N=C/c2cccc(O)c2O)c(S(=O)(=O)N2CCOCC2)c1,inactive: -11%,–
COc1ccc(-c2cc(=O)oc3c(O)c(O)ccc23)cc1,–,active: 12.6 µM
O=C(Nc1cccnc1Cl)c1ccc(=O)oc1,–,"inconclusive: 0.752 µM [inhibitor, full curve]"
CCOC(=O)c1cc2c(=O)n3ccccc3nc2n(Cc2ccco2)c1=NC(=O)c1ccc(OC)cc1,inactive: 0.438%,–

# Exported tab-delimited: entries from further up.
SMILES	activity change, negative = inhibition	Potency
CCOC(=O)C1Nc2ccc(C(=O)O)cc2C2C=CCC12 (centres undefined)	–	active: 28.2 µM
COc1ccccc1/C=C1/SC(=O)N(CCC(=O)Nc2ccc(S(=O)(=O)Nc3nccs3)cc2)C1=O	–	inconclusive: 50.1 µM [inhibitor, partial curve]

# The list goes on.

SMILES,"activity change, negative = inhibition",Potency
COc1ccc2cc(C(C)c3nc4ccccc4c(=O)n3N)ccc2c1 (centres undefined),–,"inconclusive: 11.2 µM [inhibitor, partial curve]"
Cc1cccc(C(=O)Nc2scc(-c3ccc(Br)cc3)c2C(=O)O)c1,–,"inconclusive: 8.91 µM [inhibitor, full curve, poor fit]"
NC(=O)CSc1nc2scc(-c3ccco3)c2c(=O)n1-c1ccccc1,–,"inconclusive: 50.1 µM [inhibitor, partial curve]"
N#Cc1c(SCC(=O)Nc2nc3ccccc3s2)sc2c(O)cc(=O)[nH]c12,–,active: 39.8 µM
O=C(CN1C(=O)/C(=C/c2ccco2)SC1=S)Nc1ccc(O)c(C(=O)O)c1,inactive: -1.46%,–
O=C1C=CC(=O)N1N(c1ccccc1)c1ccccc1,–,active: 35.5 µM
N#Cc1cc2c(=O)n3ccccc3nc2n(Cc2ccco2)c1=NC(=O)c1ccco1,–,"inconclusive: 35.5 µM [inhibitor, partial curve]"
O=[N+]([O-])c1cccc(S(=O)(=O)c2ccc(NCCO)c([N+](=O)[O-])c2)c1,–,"inconclusive: 89.1 µM [inhibitor, single point]"
CC1=C(C(=O)Nc2ccccc2)C(c2ccc(Cl)cc2)n2c(s/c(=C/c3cccc(OCC(=O)O)c3)c2=O)=N1 (centres undefined),–,"inconclusive: 50.1 µM [inhibitor, partial curve]"
Cc1ccccc1/C=C\c1nc2ccccc2c(=O)[nH]1,–,"inconclusive: 79.4 µM [inhibitor, partial curve]"
CC1=C(C(=O)OC(C)C)C(c2ccc(Cl)cc2)n2c(sc(=Cc3ccc(OCC(=O)O)cc3)c2=O)=N1 (centres undefined),–,"inconclusive: 44.7 µM [inhibitor, partial curve]"
COc1ccc(NC(=S)NC(=O)c2ccc3c(c2)OCCO3)cc1,–,"inconclusive: 35.5 µM [inhibitor, partial curve]"
Cc1ccc(C(=O)O)cc1N1C(=O)c2cccc3c([N+](=O)[O-])ccc(c23)C1=O,–,"inconclusive: 31.6 µM [inhibitor, partial curve]"
COc1ccc(/C=C2/C(=O)ON=C2c2ccccc2)cc1OC,–,"inconclusive: 50.1 µM [inhibitor, partial curve]"
COc1cc(C2CC(=O)Oc3c2c(=O)n(C)c2ccccc32)cc(OC)c1OC (centres undefined),inactive: -1.61%,–
COc1cc(C=C2C(=O)C=CC2=O)ccc1O,–,active: 10 µM
O=C(Nc1ccccn1)c1ccc(Br)c(S(=O)(=O)N2CCCC2)c1,–,"inconclusive: 70.8 µM [inhibitor, single point]"
COc1ccc2c(c1)oc(=O)c1cc(OC)ccc12,inactive: 0.556%,–
CCN(CC)c1nc(N)c2c(N)n(-c3ccccc3C)c(=S)c(C#N)c2c1C#N,–,"inconclusive: 50.1 µM [inhibitor, partial curve]"
COc1cc(C)c2c(c1C=O)Oc1c(c(C)c(O)c3c1C(O)OC3=O)OC2=O (centres undefined),–,active: 50.1 µM
COc1ccc(C(=O)/C=C/c2ccc(OC)c(O)c2)c(F)c1,inactive: -15%,–
COc1cc(-c2ccc(Nc3ccccc3C(=O)O)c(OC)c2)ccc1Nc1ccccc1C(=O)O,–,active: 31.6 µM
N#CC1=C(N)Oc2ccc3ccc(O)cc3c2C1c1cccnc1 (centres undefined),inactive: -18.9%,–
